# According to the supplement of paper PMC12067093, “Discovery and optimisation of a covalent ligand for TRIM25 and its application to targeted protein ubiquitination” (Chemical Science, 2025):
# The chains behind the UniProt entries cited, without tags or fusion partners. Where a name states a change or a piece, a line headed by the entry shows the natural chain unless it says otherwise.
# UniProt Q15061: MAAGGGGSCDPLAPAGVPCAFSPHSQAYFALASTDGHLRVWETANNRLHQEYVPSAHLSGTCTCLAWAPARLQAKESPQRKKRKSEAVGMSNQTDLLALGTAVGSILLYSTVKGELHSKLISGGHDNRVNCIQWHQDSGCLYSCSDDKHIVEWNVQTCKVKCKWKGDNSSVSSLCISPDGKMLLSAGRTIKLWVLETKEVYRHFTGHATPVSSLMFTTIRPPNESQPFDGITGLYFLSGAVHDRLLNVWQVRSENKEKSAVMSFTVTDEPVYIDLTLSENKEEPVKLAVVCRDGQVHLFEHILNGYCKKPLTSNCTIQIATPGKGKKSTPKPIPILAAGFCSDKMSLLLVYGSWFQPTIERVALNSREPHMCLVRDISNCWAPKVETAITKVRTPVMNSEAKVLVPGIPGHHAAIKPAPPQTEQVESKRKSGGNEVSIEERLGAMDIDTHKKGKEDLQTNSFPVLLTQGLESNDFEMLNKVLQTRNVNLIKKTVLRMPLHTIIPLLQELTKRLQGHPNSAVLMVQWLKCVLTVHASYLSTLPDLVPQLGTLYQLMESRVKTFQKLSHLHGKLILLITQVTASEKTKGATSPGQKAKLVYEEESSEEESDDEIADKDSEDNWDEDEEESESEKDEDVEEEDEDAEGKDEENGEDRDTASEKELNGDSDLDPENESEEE
# UniProt Q9NNW5: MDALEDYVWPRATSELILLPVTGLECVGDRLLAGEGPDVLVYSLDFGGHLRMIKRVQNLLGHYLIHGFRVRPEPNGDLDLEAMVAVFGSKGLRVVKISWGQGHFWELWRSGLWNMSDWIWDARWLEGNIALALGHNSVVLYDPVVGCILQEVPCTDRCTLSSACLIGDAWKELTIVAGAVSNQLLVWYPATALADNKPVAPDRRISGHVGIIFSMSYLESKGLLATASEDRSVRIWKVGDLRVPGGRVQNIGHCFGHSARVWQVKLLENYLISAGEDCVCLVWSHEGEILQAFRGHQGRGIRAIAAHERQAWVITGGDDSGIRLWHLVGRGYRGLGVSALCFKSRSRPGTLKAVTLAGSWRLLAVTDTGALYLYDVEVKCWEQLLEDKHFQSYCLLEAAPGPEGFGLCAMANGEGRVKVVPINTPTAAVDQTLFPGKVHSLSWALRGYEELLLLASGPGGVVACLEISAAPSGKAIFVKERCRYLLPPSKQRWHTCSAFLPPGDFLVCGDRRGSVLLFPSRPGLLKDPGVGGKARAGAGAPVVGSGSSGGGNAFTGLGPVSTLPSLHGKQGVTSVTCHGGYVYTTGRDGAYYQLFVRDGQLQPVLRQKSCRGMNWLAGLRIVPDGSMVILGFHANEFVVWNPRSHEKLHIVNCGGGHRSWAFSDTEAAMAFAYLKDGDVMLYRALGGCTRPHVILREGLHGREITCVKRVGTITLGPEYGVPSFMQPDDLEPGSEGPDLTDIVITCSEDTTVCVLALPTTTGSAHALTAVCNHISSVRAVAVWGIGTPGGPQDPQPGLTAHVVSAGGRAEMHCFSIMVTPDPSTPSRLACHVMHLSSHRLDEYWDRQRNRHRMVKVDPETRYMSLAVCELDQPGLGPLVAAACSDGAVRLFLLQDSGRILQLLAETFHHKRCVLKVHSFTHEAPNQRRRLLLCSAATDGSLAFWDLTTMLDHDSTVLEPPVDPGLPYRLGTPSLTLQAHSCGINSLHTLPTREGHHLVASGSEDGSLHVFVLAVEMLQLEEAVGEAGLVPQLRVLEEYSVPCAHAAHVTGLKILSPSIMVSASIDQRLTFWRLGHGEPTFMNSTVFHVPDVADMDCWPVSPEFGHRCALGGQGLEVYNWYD
# This is one part of the list.
# Tests used:
# [1] = molecular target: WDR43_Q15061_158_HIVEWNVQTCK (UniProt Q15061); assay: probe-labelled cysteine peptide fold change vs DMSO (competition) (log2 fold change); higher = less target engagement (more negative = stronger competition); conditions: THP-1, incubation time: 4 h
# [2] = molecular target: WDR6_Q9NNW5_653_LHIVNCGGGHR (UniProt Q9NNW5); assay: as above; conditions: THP-1, incubation time: 4 h
# 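Also: competitive profiling in live THP-1 cells: cysteine peptides tagged with an iodoacetamide desthiobiotin (IA-DTB) probe, intensity after compound treatment relative to DMSO-treated cells.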
smiles,measurement,setting,value
Cc1cc(C(=O)N2CCCN(C(=O)CCl)CC2)ccc1-c1ccccc1 [compound 10],probe-labelled cysteine peptide fold change,[1]; 10 µM,-0.0124
same,probe-labelled cysteine peptide fold change,[1]; 50 µM,-0.0233
same,probe-labelled cysteine peptide fold change,[2]; 10 µM,0.188
same,probe-labelled cysteine peptide fold change,[2]; 50 µM,-0.0331
